# The supplement of paper PMC10338343
# ± gives the standard deviation. The entries are a selection whose mix differs from that of the whole data set. The uncertainty is large for many entries.
# Test system: MILI (PIWIL2) piRISC loaded with L1MC piRNA (26 nt)
# Assay: pre-steady-state target cleavage rate (min^-1); MIWI and MILI are mouse PIWI proteins and EfPiwi is from a freshwater sponge; tags in brackets are library labels; higher = faster piRNA-guided slicing of the target
# Conditions: guide: L1MC piRNA 5'p-UAACUAAAUACUAUGCAAGCUGUAGG; auxiliary factor: 500 nM mouse GTSF1
# Procedure, shortened: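 The pre-steady-state cleavage rate was obtained by Cleave-'n-Seq with a burst-and-steady-state fit. A transcribed, DNA-blocked target RNA library (0.1 nM) was mixed with 1 nM active affinity-purified piRISC carrying one synthetic guide, with or without 500 nM GTSF1 partner protein, in HEPES–potassium acetate buffer at 33 °C for 0–8 or 0–960 min. Uncleaved targets were sequenced and normalised to depth and to weakly complementary targets, with three trials pooled and k3 capped at 0.0001 min^-1.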
row,Sequence,pre-steady-state target cleavage rate
1,UCCUGGAACAGCUACGAUAGUAUUUACAAA,0.00237 ± 0.0051
2,UCCUCCUACAGCUUGCAAAGUUUUUAGUUA,0.0169 ± 0.0064
3,UCCUGGAUGUGGUUGCAUACUAUUUAGUUA,0.0175 ± 0.0072
4,UCCUGGAUGUCGAAGCAUAGUUUUUAGUUA,0.00892 ± 0.0039
5,UCCUGGAUGUCGAACCAUUGAAUUUAGUUA,0.000343 ± 0.01
6,UCCUGCUACAGCUUGGUAAGUAUUUAGAAA,0.0107 ± 0.0045
7,UCCUGGAUCAGCUUGCAUAGUUUUUUCAAA,0.00833 ± 0.0048
8,UCCUGGAUGAGCUUGCAUAGAUAUUAGUUA,0.00307 ± 0.0041
9,UCCUGGAUGAGCUUGCAUAAGUAUUUAGUUA,0.00282 ± 0.0053
10,UCCUGGAUGAGCUUGCAUAGUAAAAAGAAA,0.00225 ± 0.0063
11,UCCUGGAUGUCGAUGCAAUAGUAUUUAGUUA,0.00497 ± 0.0023
12,UCCUGGAUGUGCUUGCAUAGUUUUAGUUA,0.00191 ± 0.0061
13,UCCUGGAUGAGCUACCAUAGUAUUUAGUAA,0.1 ± 0.018
14,UCCUGGUUACAGCUUGCAUAGUAUUUAGUUA,0.256 ± 0.025
15,UCCUGGAUGUCCUUGCAUAGUUUUAAGUUA,0.0115 ± 0.0059
16,UCCUGGAUGUGCUUGCAUAGAUUUAGUUA,0.00189 ± 0.0063

# Same assay, conditions: guide: L1MC piRNA 5'p-UAACUAAAUACUAUGCAAGCUGUAGG; auxiliary factor: none (no GTSF1)
row,Sequence,pre-steady-state target cleavage rate
1,UCCUGGAUGUGCUUGCAAUAGUAUUUAGUUA,0.00128 ± 0.0053
2,UCCUGGAUGUCGAAGCAUAGUCAUUUAGUUA,0.00109 ± 0.0048
3,UCCUGGAUGAGCUUGCACUAGUAUUUAGUUA,0.00102 ± 0.0065
4,UCCUGGAUGACGCUUGCAUAGUAUUUAGUUA,0.00493 ± 0.0037
5,UCCUGGAUGUGCUUGCAUAGUAUAAAGAAA,0.000566 ± 0.0097
6,UCCUGGAUGAGCUUGCUUAGAAUUUAGUUA,0.00218 ± 0.0033
7,UCCUGGAUCAGCUUGCAUAGUUUUAGUUA,0.00156 ± 0.0037
8,UCCUGGAUGUGGUUGCUUAGUAUUUAGUUA,0.0132 ± 0.0037
9,UCCUGGAUGAGCUUGCAUAGUAAAAACAAA,0.00018 ± 0.021
10,UCCUGGAUCAGCUUGCAUAGUAUUAUGUAA,0.00136 ± 0.0053
11,UCCUGGAUGUGCUUGCAUACUUUUUAGUUA,0.0037 ± 0.0027
12,UCCUGGAUGUCGUUGCAUAGUUUUAGUUA,0.000898 ± 0.0066
13,UCCUGGAUGAGGUUGCAUAGUAUUUACAAA,0.00056 ± 0.0098
14,UCCUGGAUGUCGUUGCAUAGUUUUUAGUUA,0.00595 ± 0.0026
15,UCCUGGAUGUCGUUGCUAUAGUAUUUAGUUA,0.000377 ± 0.014
16,UCCUGGAUGUCCUUGCAUAGUAUUUUCUAA,0.00293 ± 0.0033
17,UCCUGGAUGUCGUUGCGUAGUAUUUAGUUA,0.00779 ± 0.0026
18,UCCUGGAUGUCCUUGCAUAGAUUUAGUUA,0.000812 ± 0.0049
19,UCCUGGAUGUGCUUGCUAUGUAUUUAGUAA,0.00161 ± 0.0045
20,UCCUGGAACAGGUUGCAUAGUUUUUAGUUA,0.00467 ± 0.0021

row,Sequence,pre-steady-state target cleavage rate
1,UCCUGGAUGAGCUUGCAUACAAUUUAGUUA,0.00149 ± 0.0035
2,UCCUGGAUGUCGAACCAUAGUAUUUAGUUA,0.000321 ± 0.0056
3,UCCUGGAUGUCGAAGCCUAGUAUUUAGUUA,0.000905 ± 0.0049
4,UCCUGGAUCAGCUUGCAUACAUUUUAGUUA,0.00176 ± 0.0045
5,UCCUGGAACAGCUACGAUAGUAUUUACAAA,0.000596 ± 0.0083
6,UCCUCCUACAGCUUGCAAAGUUUUUAGUUA,0.00334 ± 0.0023
7,UCCUGGAUGUGGUUGCAUACUAUUUAGUUA,0.00525 ± 0.0036
8,UCCUGGAUGUCGAAGCAUAGUUUUUAGUUA,0.00397 ± 0.0017
9,UCCUGGAUGUCGAACCAUUGAAUUUAGUUA,0.000198 ± 0.021
10,UCCUGCUACAGCUUGGUAAGUAUUUAGAAA,0.000725 ± 0.0083
11,UCCUGGAUCAGCUUGCAUAGUUUUUUCAAA,0.000832 ± 0.006
12,UCCUGGAUGAGCUUGCAUAGAUAUUAGUUA,0.00114 ± 0.0062
13,UCCUGGAUGAGCUUGCAUAAGUAUUUAGUUA,0.000965 ± 0.0059
14,UCCUGGAUGAGCUUGCAUAGUAAAAAGAAA,0.000771 ± 0.0076
15,UCCUGGAUGUCGAUGCAAUAGUAUUUAGUUA,0.000974 ± 0.0065
16,UCCUGGAUGUGCUUGCAUAGUUUUAGUUA,0.00114 ± 0.0049
17,UCCUGGAUGAGCUACCAUAGUAUUUAGUAA,0.00158 ± 0.005
18,UCCUGGUUACAGCUUGCAUAGUAUUUAGUUA,0.03 ± 0.0078
19,UCCUGGAUGUCCUUGCAUAGUUUUAAGUUA,0.00312 ± 0.0026
20,UCCUGGAUGUGCUUGCAUAGAUUUAGUUA,0.00117 ± 0.0044
